Results from one PubChem assay

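Malaria parasite (P. falciparum) lines kept in red blood cells; parasite DNA is measured by SYBR Green fluorescence after lysis, 72 h after compound addition.
Each compound was titrated across a series from about 0.000037 to 29 µM.
The number is the fitted AC50, the concentration giving a half-maximal change in signal; a lower value means higher potency, whether the curve shows a decrease or an increase.
Calls follow the curve class and fit quality: every row here is inconclusive, covering signal-raising curves and weak, poorly fitted, partial or highest-dose-only inhibition curves.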

Values are in nM.
All entries here are filed as inconclusive.
Only part of the assay is shown, chiefly results filed as inconclusive.
Potencies fitted to partial, single-point or poorly fitting curves are rough.

compound	condition	Potency (nM)	curve
CC(CN(C)C)C(C)(O)Cc1ccc(Cl)cc1 (stereo not drawn)	DIV14	8492	inhibitor, partial curve
CC(CN(C)C)C(C)(O)Cc1ccc(Cl)cc1 (stereo not drawn)	CP250	1412	inhibitor, full curve, poor fit
CC(CN(C)C)C(C)(O)Cc1ccc(Cl)cc1 (stereo not drawn)	AA1029	6310	inhibitor, partial curve
CC(CN(C)C)C(C)(O)Cc1ccc(Cl)cc1 (stereo not drawn)	ATS189	10000	inhibitor, single point
CC(CN(C)C)C(C)(O)Cc1ccc(Cl)cc1 (stereo not drawn)	CP291	6746	inhibitor, partial curve
CC(CN(C)C)C(C)(O)Cc1ccc(Cl)cc1 (stereo not drawn)	ICS	8912	inhibitor, partial curve, poor fit
CC(CN(C)C)C(C)(O)Cc1ccc(Cl)cc1 (stereo not drawn)	CP256	5012	inhibitor, partial curve
CC(CN(C)C)C(C)(O)Cc1ccc(Cl)cc1 (stereo not drawn)	CP194	13459	inhibitor, partial curve
CC(CN(C)C)C(C)(O)Cc1ccc(Cl)cc1 (stereo not drawn)	CP335	13459	inhibitor, partial curve, poor fit
CC(CN(C)C)C(C)(O)Cc1ccc(Cl)cc1 (stereo not drawn)	CP211	16944	inhibitor, single point
CC(CN(C)C)C(C)(O)Cc1ccc(Cl)cc1 (stereo not drawn)	CP297	4256	inhibitor, full curve, poor fit
CC(CN(C)C)C(C)(O)Cc1ccc(Cl)cc1 (stereo not drawn)	CP329	7569	inhibitor, partial curve, poor fit
CC(CN(C)C)C(C)(O)Cc1ccc(Cl)cc1 (stereo not drawn)	CP185	14125	inhibitor, single point
CC(CN(C)C)C(C)(O)Cc1ccc(Cl)cc1 (stereo not drawn)	AS120	11220	inhibitor, single point
CC(CN(C)C)C(C)(O)Cc1ccc(Cl)cc1 (stereo not drawn)	TAB109	7080	inhibitor, partial curve
CC(CN(C)C)C(C)(O)Cc1ccc(Cl)cc1 (stereo not drawn)	CP286	7943	inhibitor, partial curve
CC(CN(C)C)C(C)(O)Cc1ccc(Cl)cc1 (stereo not drawn)	CP325	8492	inhibitor, partial curve
CC(CN(C)C)C(C)(O)Cc1ccc(Cl)cc1 (stereo not drawn)	CP238	8912	inhibitor, partial curve
CC(CN(C)C)C(C)(O)Cc1ccc(Cl)cc1 (stereo not drawn)	P93_24	17782	inhibitor, single point
CC(CN(C)C)C(C)(O)Cc1ccc(Cl)cc1 (stereo not drawn)	CP268	6746	inhibitor, partial curve
CC(CN(C)C)C(C)(O)Cc1ccc(Cl)cc1 (stereo not drawn)	PC49	12589	inhibitor, single point
CC(CN(C)C)C(C)(O)Cc1ccc(Cl)cc1 (stereo not drawn)	P94_40	8912	inhibitor, single point
CC(CN(C)C)C(C)(O)Cc1ccc(Cl)cc1 (stereo not drawn)	ECU	15848	inhibitor, single point
CC(CN(C)C)C(C)(O)Cc1ccc(Cl)cc1 (stereo not drawn)	7G8	5623	inhibitor, partial curve
CC(CN(C)C)C(C)(O)Cc1ccc(Cl)cc1 (stereo not drawn)	TAB113	10000	inhibitor, partial curve, poor fit
CC(CN(C)C)C(C)(O)Cc1ccc(Cl)cc1 (stereo not drawn)	CP215	11995	inhibitor, single point
CC(CN(C)C)C(C)(O)Cc1ccc(Cl)cc1 (stereo not drawn)	SC27B	11220	inhibitor, partial curve
CC(CN(C)C)C(C)(O)Cc1ccc(Cl)cc1 (stereo not drawn)	DIV30	7569	inhibitor, partial curve, poor fit
CC(C)NCC(O)c1ccccc1Cl (stereo not drawn)	CP268	15101	inhibitor, single point
CC(C)NCC(O)c1ccccc1Cl (stereo not drawn)	CP262	5358	inhibitor, partial curve
CC(C)NCC(O)c1ccccc1Cl (stereo not drawn)	CP305	9528	inhibitor, single point
CC(C)NCC(O)c1ccccc1Cl (stereo not drawn)	DFO2036	10000	inhibitor, single point
CC(C)NCC(O)c1ccccc1Cl (stereo not drawn)	CP247	17782	inhibitor, single point
CC(C)NCC(O)c1ccccc1Cl (stereo not drawn)	CP250	17782	inhibitor, single point
CC(C)NCC(O)c1ccccc1Cl (stereo not drawn)	CP185	11220	inhibitor, single point
CC(C)NCC(O)c1ccccc1Cl (stereo not drawn)	CP238	11220	inhibitor, single point
CC(C)NCC(O)c1ccccc1Cl (stereo not drawn)	3D7	11220	inhibitor, single point
CC(C)NCC(O)c1ccccc1Cl (stereo not drawn)	CP215	11995	inhibitor, partial curve

Repeated from the top, 5 entries:

| compound | condition | Potency (nM) | curve |
|---|---|---|---|
| `CC(CN(C)C)C(C)(O)Cc1ccc(Cl)cc1` (stereo not drawn) | DIV14 | 8492 | inhibitor, partial curve |
| `CC(CN(C)C)C(C)(O)Cc1ccc(Cl)cc1` (stereo not drawn) | CP250 | 1412 | inhibitor, full curve, poor fit |
| `CC(CN(C)C)C(C)(O)Cc1ccc(Cl)cc1` (stereo not drawn) | AA1029 | 6310 | inhibitor, partial curve |
| `CC(CN(C)C)C(C)(O)Cc1ccc(Cl)cc1` (stereo not drawn) | ATS189 | 10000 | inhibitor, single point |
| `CC(CN(C)C)C(C)(O)Cc1ccc(Cl)cc1` (stereo not drawn) | CP291 | 6746 | inhibitor, partial curve |

Source: PubChem BioAssay AID504749 (NCATS, 2011).